Data on two substances can be found in PMC12332402.

Amino acid sequences for entries named in this document (tags omitted).
UniProt Q9V7D2: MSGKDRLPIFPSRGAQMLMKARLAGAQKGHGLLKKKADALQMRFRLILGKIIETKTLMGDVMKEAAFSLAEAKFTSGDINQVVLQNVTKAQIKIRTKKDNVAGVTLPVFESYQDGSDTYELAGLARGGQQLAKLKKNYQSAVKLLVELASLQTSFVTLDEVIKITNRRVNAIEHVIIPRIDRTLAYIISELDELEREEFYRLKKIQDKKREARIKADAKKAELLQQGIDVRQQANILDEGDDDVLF
UniProt P12613: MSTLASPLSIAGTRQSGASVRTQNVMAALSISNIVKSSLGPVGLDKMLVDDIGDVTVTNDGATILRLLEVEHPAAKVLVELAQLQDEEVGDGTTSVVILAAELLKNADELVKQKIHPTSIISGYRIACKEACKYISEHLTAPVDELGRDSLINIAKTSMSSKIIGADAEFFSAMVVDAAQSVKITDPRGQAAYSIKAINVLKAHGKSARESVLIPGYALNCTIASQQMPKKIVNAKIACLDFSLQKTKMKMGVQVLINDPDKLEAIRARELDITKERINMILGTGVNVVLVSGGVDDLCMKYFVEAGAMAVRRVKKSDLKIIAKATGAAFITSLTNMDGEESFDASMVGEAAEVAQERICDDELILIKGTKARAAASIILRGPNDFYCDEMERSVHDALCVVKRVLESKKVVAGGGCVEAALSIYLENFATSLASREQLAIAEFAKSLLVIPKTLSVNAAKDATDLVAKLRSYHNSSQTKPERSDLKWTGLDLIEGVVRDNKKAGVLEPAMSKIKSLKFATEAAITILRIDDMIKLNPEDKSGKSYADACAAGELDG
UniProt P00722: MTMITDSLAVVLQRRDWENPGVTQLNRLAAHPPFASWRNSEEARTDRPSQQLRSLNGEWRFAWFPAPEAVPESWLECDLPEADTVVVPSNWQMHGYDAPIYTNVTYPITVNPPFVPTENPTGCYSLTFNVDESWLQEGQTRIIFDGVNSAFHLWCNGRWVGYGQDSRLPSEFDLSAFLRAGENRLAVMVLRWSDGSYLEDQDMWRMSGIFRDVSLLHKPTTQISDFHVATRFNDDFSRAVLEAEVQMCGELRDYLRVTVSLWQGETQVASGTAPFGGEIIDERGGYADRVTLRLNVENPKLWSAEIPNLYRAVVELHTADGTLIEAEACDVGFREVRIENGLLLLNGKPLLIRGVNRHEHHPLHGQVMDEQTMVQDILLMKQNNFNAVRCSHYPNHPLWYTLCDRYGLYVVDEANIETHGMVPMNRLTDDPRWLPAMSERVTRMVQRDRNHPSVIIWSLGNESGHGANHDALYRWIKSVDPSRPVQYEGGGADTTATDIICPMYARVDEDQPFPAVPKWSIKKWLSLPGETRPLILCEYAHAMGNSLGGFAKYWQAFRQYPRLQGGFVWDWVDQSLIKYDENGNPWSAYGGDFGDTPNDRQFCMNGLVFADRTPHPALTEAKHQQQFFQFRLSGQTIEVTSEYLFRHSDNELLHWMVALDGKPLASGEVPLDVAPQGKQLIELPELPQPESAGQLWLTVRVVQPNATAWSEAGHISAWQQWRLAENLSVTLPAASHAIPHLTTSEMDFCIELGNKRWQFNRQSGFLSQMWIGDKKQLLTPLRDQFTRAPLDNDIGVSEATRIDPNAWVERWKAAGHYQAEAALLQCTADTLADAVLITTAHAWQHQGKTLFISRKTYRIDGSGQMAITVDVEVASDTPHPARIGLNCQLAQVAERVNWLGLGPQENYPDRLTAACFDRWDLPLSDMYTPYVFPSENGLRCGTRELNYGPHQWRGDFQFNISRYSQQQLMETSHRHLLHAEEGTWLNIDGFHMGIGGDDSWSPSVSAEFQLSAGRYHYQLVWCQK

No constants are given. Whether binding was seen depends on the method and setting. In cells and extracts the contact can be indirect. Some results given as binding are weak or reduced against the parent protein; the word gives no strength. For some of these results: Where a sequence is shown, tags or fusion partners need not be part of it.

Assay [1] deals with V5-tagged Vha36-1 (Drosophila) (UniProt Q9V7D2). Kind of assay: co-IP; S2 cells coexpressing V5-Vha36-1, HA-CCT1 and RagA^GTP or RagA^GDP (or LacZ); anti-V5 antibody-coated beads; Western blot. On the technique in general: In western blotting, separated proteins are transferred to a membrane and probed.
Assay [2] has the same target. Kind of assay: co-IP; S2 cells cotransfected; lysed in RIPA buffer; anti-V5 antibody-coated magnet beads, 6 h at room temperature, eight washes with lysis buffer; Western blot.
Assay [3] has as its target T1, V5-tagged Lamtor4 (Drosophila) (UniProt Q9VZL6).
T1 sequence: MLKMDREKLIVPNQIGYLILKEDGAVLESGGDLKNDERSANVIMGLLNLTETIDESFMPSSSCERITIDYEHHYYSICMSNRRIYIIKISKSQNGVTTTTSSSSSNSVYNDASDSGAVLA
Described as above.

As for “HA-tagged CCT1 (from UniProt P12613 1-557)”, the binding entry in assay [1] and in assay [2] was “binds” each time.
Take “HA-tagged LacZ (from UniProt P00722 1-1024)”: the binding result in assay [3] and in assay [2] was “no binding” in each case.
